According to patent US20060247266A1, “Nitrogen-containing tricyclic compounds” (Asahi Kasei Pharma Corporation, priority 2004, published 2006):
Some of these results come from one statement about several compounds together.

Experiments:
[1] = test system: phosphorylated myosin regulatory light chain; experiment: Inhibitory action on phosphorylation of myosin regulatory light chain (Test Example 1); type: cell-based, human; conditions: neutrophils from healthy volunteers
[2] = test system: Neutrophils; experiment: Neutrophil migration inhibitory action (Test Example 6); type: cell-based, human; conditions: Boyden Chamber, FMLP (1 μM)

| Compound | concentration at which phosphorylation of the myosin regulatory light chain was inhibited [1] | concentration at which migration of neutrophils was inhibited [2] |
| --- | --- | --- |
| FC1CNCCC1N1CCc2cncc3cccc1c23 (stereo not shown) | below 40 μM | ≤ 40 µM |
| CN(CCO)C1CCC(N2CCc3cncc4cccc2c34)CC1 (stereo not shown) | below 40 μM | ≤ 40 µM |
